Results are given in words; binding and its absence hold for the method and conditions named. In cells and extracts the contact can be indirect. These calls come from enrichment with a bait or labelling near it, and not all partners need be listed.
How the values were obtained:
WT menin-GFP (human) [1] = biological target: WT menin-GFP (human) (UniProt O00255); experiment: affinity purification with mass spectrometry; GFP-Trap agarose beads against control agarose beads; 3 mg cytoplasmic extract of HeLa cells induced with doxycycline for 24 h; binding buffer 20 mM Hepes-KOH pH 7.9, 300 mM NaCl, 20% glycerol, 0.1% NP-40; 4 °C, 1 h; triplicates; label-free LFQ and iBAQ, FDR 0.01, s0 2
menin E255K-GFP (human) = menin E255K-GFP (human) (UniProt O00255); experiment: as above
menin E359K-GFP (human) [2] = biological target: menin E359K-GFP (human) (UniProt O00255); experiment: as above
menin E366D-GFP (human) [3] = biological target: menin E366D-GFP (human) (UniProt O00255); experiment: as above
menin E408Q-GFP (human) [4] = biological target: menin E408Q-GFP (human) (UniProt O00255); experiment: as above
menin L168P-GFP (human) = menin L168P-GFP (human) (UniProt O00255); experiment: as above
menin L264P-GFP (human) = menin L264P-GFP (human) (UniProt O00255); experiment: as above
menin Q141R-GFP (human) [5] = biological target: menin Q141R-GFP (human) (UniProt O00255); experiment: as above
menin R322H-GFP (human) [6] = experiment: as above
menin R52G-GFP (human) = menin R52G-GFP (human) (UniProt O00255); experiment: as above
WT menin-GFP (human) [7] = biological target: WT menin-GFP (human) (UniProt O00255); experiment: affinity purification with mass spectrometry; GFP-Trap agarose beads against control agarose beads; 1 mg nuclear extract of HeLa cells induced with doxycycline for 24 h; binding buffer 20 mM Hepes-KOH pH 7.9, 300 mM NaCl, 20% glycerol, 0.1% NP-40; 4 °C, 1 h; triplicates; label-free LFQ and iBAQ, FDR 0.01, s0 2
menin E359K-GFP (human) [8] = biological target: menin E359K-GFP (human) (UniProt O00255); experiment: as above
menin E366D-GFP (human) [9] = biological target: menin E366D-GFP (human) (UniProt O00255); experiment: as above
menin E408Q-GFP (human) [10] = biological target: menin E408Q-GFP (human) (UniProt O00255); experiment: as above
menin Q141R-GFP (human) [11] = biological target: menin Q141R-GFP (human) (UniProt O00255); experiment: as above
menin R322H-GFP (human) [12] = experiment: as above

binding (WT menin-GFP (human) [1]) | binding (menin E255K-GFP (human)) | binding (menin E359K-GFP (human) [2]) | binding (menin E366D-GFP (human) [3]) | binding (menin E408Q-GFP (human) [4]) | binding (menin L168P-GFP (human)) | binding (menin L264P-GFP (human)) | binding (menin Q141R-GFP (human) [5]) | binding (menin R322H-GFP (human) [6]) | binding (menin R52G-GFP (human)) | binding (WT menin-GFP (human) [7]) | binding (menin E359K-GFP (human) [8]) | binding (menin E366D-GFP (human) [9]) | binding (menin E408Q-GFP (human) [10]) | binding (menin Q141R-GFP (human) [11]) | binding (menin R322H-GFP (human) [12]) | Binder
binds | binds | binds | binds | binds | binds | binds | binds | binds | binds |  |  |  |  |  |  | BAG5 (protein, UniProt Q9UL15 1-447) MDMGNQHPSISRLQEIQKEVKSVEQQVIGFSGLSDDKNYKKLERILTKQLFEIDSVDTEGKGDIQQARKRAAQETERLLKELEQNANHPHRIEIQNIFEEAQSLVREKIVPFYNGGNCVTDEFEEGIQDIILRLTHVKTGGKISLRKARYHTLTKICAVQEIIEDCMKKQPSLPLSEDAHPSVAKINFVMCEVNKARGVLIALLMGVNNNETCRHLSCVLSGLIADLDALDVCGRTEIRNYRREVVEDINKLLKYLDLEEEADTTKAFDLRQNHSILKIEKVLKRMREIKNELLQAQNPSELYLSSKTELQGLIGQLDEVSLEKNPCIREARRRAVIEVQTLITYIDLKEALEKRKLFACEEHPSHKAVWNVLGNLSEIQGEVLSFDGNRTDKNYIRLEELLTKQLLALDAVDPQGEEKCKAARKQAVRLAQNILSYLDLKSDEWEY
 |  |  |  |  |  |  |  |  |  | binds | binds | binds | binds | binds | binds | JunD (protein, UniProt P17535 1-347) METPFYGDEALSGLGGGASGSGGSFASPGRLFPGAPPTAAAGSMMKKDALTLSLSEQVAAALKPAAAPPPTPLRADGAPSAAPPDGLLASPDLGLLKLASPELERLIIQSNGLVTTTPTSSQFLYPKVAASEEQEFAEGFVKALEDLHKQNQLGAGAAAAAAAAAAGGPSGTATGSAPPGELAPAAAAPEAPVYANLSSYAGGAGGAGGAATVAFAAEPVPFPPPPPPGALGPPRLAALKDEPQTVPDVPSFGESPPLSPIDMDTQERIKAERKRLRNRIAASKCRKRKLERISRLEEKVKTLKSQNTELASTASLLREQVAQLKQKVLSHVNSGCQLLPQHQVPAY

Source: paper PMC9361535
